Drawing on US20230270882A1, this text covers binding for two molecules.

Chains of the proteins cited; added tags and fusions are not shown. Lines headed by an entry give the natural chain unless they say otherwise; changes in a name come on top. Residues count along the entry.
UniProt Q9NZQ7: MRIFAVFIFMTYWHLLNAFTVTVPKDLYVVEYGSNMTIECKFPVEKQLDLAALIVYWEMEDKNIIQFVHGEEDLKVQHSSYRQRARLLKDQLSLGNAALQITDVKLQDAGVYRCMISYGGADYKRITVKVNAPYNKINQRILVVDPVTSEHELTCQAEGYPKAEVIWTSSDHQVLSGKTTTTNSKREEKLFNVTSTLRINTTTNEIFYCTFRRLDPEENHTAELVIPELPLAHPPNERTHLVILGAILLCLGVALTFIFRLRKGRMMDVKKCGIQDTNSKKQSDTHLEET
PD-L1 on 786-O cells (PD-L1 overexpressing human renal cell carcinoma cell line): residues 19-290 of Q9NZQ7
PD-L1 proteins (R&D systems): residues 19-239 of Q9NZQ7

The target in test [1] is PD-L1 proteins (R&D systems) (UniProt Q9NZQ7). Put plainly: SPR.
In test [2] the target is PD-L1 on 786-O cells (PD-L1 overexpressing human renal cell carcinoma cell line) (human) (UniProt Q9NZQ7). Put plainly: fluorescence microscopy on 786-O and MCF-7 cells.

No constants are given. Whether binding was seen depends on the method and setting. Some entries that bind do so weakly or less than the wild type.

B1: G7-pL1TZ (peptide)
peptide: HKVWHWESPSGQWDTWAA
modifications: conjugated to the dendrimer through the lysine that was substituted for a valine
With B1, the binding entry in test [1] and in test [2] was “binds” each time.

B2: pL1TZ (peptide)
peptide: HKVWHWESPSGQWDTWAA
As for B2, the binding entry in test [1] is given as “binds”.
